Experiment: Immobilisation of protein/enzyme onto KRYPTOFIX 221B or […] polymer: protein loading
Conditions: 5 mg protein, KRYPTOFIX 221B 15 mg

## Cytochrome c: Cytochrome c from horse heart (Type III, from Sigma Chemical Co.), 104 residues
  mg of protein on support: 1.58 mg
G protein adsorbed / g support × 100
  loading: 10.5

Reference: patent publication US4532212A, “Process for the dissolution of peptides in non-aqueous and mixed non-aqueous/aqueous systems” (Shell Oil Company, priority 1983, dated 1985)
